This is one part of the list. Shown are side measurements of this screen, not its main read-out; they come without a call. The list favours compounds with an active or inconclusive main result. The note in brackets gives the kind of curve behind each potency; many fits are weak.
Assay: qHTS Assay to Find Inhibitors of Chronic Active B-Cell Receptor Signaling
Settings: ABC-DLBCL IkBa-CBG/CBR reporter, luminescence ratio (green luciferase fused to IkBa over red control in TMD8 lymphoma cells), 4 h
How it was run: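 Cell line TMD8 (human ABC DLBCL), stably expressing tet-inducible CBG68-IkBa fusion and CBR; IMDM/0.5% FBS; cpd up to 46 uM; dox induction, 4 h, 37C/5% CO2; dual luminescence; green/red ratio; MG132 control.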

[1] = measured here: CBR red luminescence, cell number
[2] = measured here: IkBa-CBG green luminescence

Row | Structure (SMILES) | AC50 [1] | AC50 [2]
1 | COc1ccc(-c2ccc(/C=C3/C(=N)N4C=CSC4=NC3=O)o2)c([N+](=O)[O-])c1 | 6.51 µM [falling, single point] | –
2 | CCOC(=O)c1ccc2[nH]c3ccccc3c2c1 | 1.12 µM [rising, partial curve] | –
3 | CC12CCC(C(=O)Nc3ccccc3)(C/C1=N\O)C2(C)C (stereo not given) | 4.61 µM [rising, full curve, poor fit] | –
4 | O=C1CN=C(Nc2ccc(Cl)cc2)N1c1ccccc1 | 35.5 µM [falling, single point] | –
5 | COc1ccc2cc(C[C@@H]3CC[C@@H](CNC(N)=O)O3)ccc2c1 | 14.6 µM [rising, partial curve] | –
6 | Cc1ccc(-c2csc3nc(CN(C)Cc4ccccc4)[nH]c(=O)c23)cc1 | 3.55 µM [rising, single point] | –
7 | N=c1c2c(n(Cc3ccc(F)cc3)c3c1CCC3)CCC2 | 35.5 µM [falling, single point] | –
8 | O=C(Nc1nccs1)c1cc(S(=O)(=O)N2CCOCC2)c(Cl)cc1Cl | 2.24 µM [falling, partial curve, poor fit] | –
9 | COc1cc(NC(=S)NC(=O)c2ccccc2F)ccc1NC(=O)c1ccco1 | 13 µM [rising, partial curve] | 23.1 µM [falling, partial curve, poor fit]
10 | CCN1C(=O)/C(=C/c2cnn(C)c2C)SC1=S | 3.66 µM [rising, partial curve, poor fit] | –
11 | Cc1cc(C(C)(C)C)cc(C)c1CC1=NCCN1 | 7.08 µM [falling, partial curve, poor fit] | –
12 | C=CCS/C(N)=N\N=C\c1c(O)ccc2ccccc12 | 35.5 µM [falling, single point] | –
13 | N/C(=N\OC(=O)/C=C/c1ccccc1Cl)c1ccccn1 | 14.1 µM [falling, partial curve, poor fit] | –
14 | Cc1cc(C)c(C(=O)N2CCCC(CNC(=O)C3(c4ccc(Cl)cc4)CC3)C2)c(=O)[nH]1 (stereo not given) | 3.98 µM [falling, partial curve, poor fit] | –
15 | CCOC(=O)Cn1nnnc1CN(Cc1cccs1)Cc1cc2cc(C)cc(C)c2[nH]c1=O | 18.4 µM [falling, partial curve] | –
16 | CCCCN(C(=O)CSc1nnc(-c2ccccc2)n1C)c1c(N)n(Cc2ccccc2)c(=O)[nH]c1=O | 0.82 µM [rising, full curve, poor fit] | –
17 | COc1ccccc1N(CC(=O)NC1CCCCC1)S(=O)(=O)c1ccccc1 | 35.5 µM [falling, single point] | –
18 | CC(=O)OC(/C(O)=C(\C#N)c1nc2ccccc2[nH]1)c1ccccc1 (stereo not given) | 25.1 µM [rising, partial curve, poor fit] | –
19 | O=C(OCc1ccccc1Cl)c1ccc(-n2cnnc2)cc1 | 6.31 µM [rising, partial curve, poor fit] | –
20 | Cc1ccc(C(=O)NCCSc2ccc(Cl)cc2)cc1S(=O)(=O)Nc1ccccc1 | 12.6 µM [falling, partial curve] | 35.5 µM [rising, partial curve, poor fit]
21 | S=C(NCC1CCCO1)Nc1ccc(Cl)c(Cl)c1 (stereo not given) | 6.31 µM [falling, partial curve] | –

Row | Structure (SMILES) | AC50 [1] | AC50 [2]
22 | COC(=O)CN1C(=O)N/C(=C/c2ccccc2OC)C1=O | 0.794 µM [falling, full curve] | –
23 | CCOc1ccccc1OCCOCCN1CC(C)OC(C)C1 (stereo not given) | 3.26 µM [rising, partial curve, poor fit] | –
24 | CC(C)(C)c1ccc(-n2nc(C#N)c(Cl)cc2=O)cc1 | 11.2 µM [falling, partial curve, poor fit] | 12.6 µM [rising, partial curve, poor fit]
25 | COc1ccc(NC(=O)C(=O)NCCN2CCN(C(=O)c3cccc(Br)c3)CC2)cc1 | 2.51 µM [rising, full curve, poor fit] | –
26 | CCOC(=O)Cn1c(=O)c2c(nc(Br)n2Cc2ccc(Cl)cc2)n(C)c1=O | 3.66 µM [rising, partial curve, poor fit] | –
27 | COc1cccc(NC(=O)c2oc3ccc(S(=O)(=O)N4CCC5(CC4)OCCO5)cc3c2C)c1 | 20 µM [falling, partial curve, poor fit] | –
28 | COc1cccc(-n2c(SCc3cc(=O)oc4cc(O)c(O)cc34)nc3ccccc3c2=O)c1 | 29.1 µM [falling, single point] | –
29 | O=C1C(=O)N(c2ccc(O)cc2)C(c2ccccc2[N+](=O)[O-])/C1=C(\O)c1ccccc1 (stereo not given) | 12.6 µM [falling, single point] | –
30 | Cc1ccc(CCNC(=O)C2CCCN(S(=O)(=O)c3cccc4nsnc34)C2)cc1 (stereo not given) | 25.9 µM [falling, partial curve] | –
31 | CC1CCN(S(=O)(=O)c2ccc3c(ccn3CC(=O)O)c2)CC1 | 14.1 µM [rising, partial curve, poor fit] | –
32 | CCn1cnc2cc(NC(=O)c3ccc(C)cc3)ccc21 | 35.5 µM [falling, single point] | –
33 | C#CCOCCOCCOCCNc1nc(N2CCN(C(=O)[C@H](CCCCN)n3cc(CCC(=O)O)nn3)CC2)nc(N2CCN(C(=O)[C@H](CCCCN)n3cc(CC(C)O)nn3)CC2)n1 (stereo not given in full) | 29.1 µM [rising, single point] | –
34 | C#CCN1C(=O)S/C(=C\c2cc3c(cc2OC)OCO3)C1=O | 8.91 µM [rising, partial curve, poor fit] | –
35 | COc1ccc(CC(=O)OCC(=O)Nc2ccc(Cl)cn2)cc1 | 29.1 µM [falling, single point] | –
36 | COCCNC(=O)CSc1nc2nn(-c3ccccc3)c(=O)c-2c2n1CCCCC2 | 6.31 µM [falling, full curve, poor fit] | –
37 | O=C1CCC(C(=O)Nc2ccccc2N2CCOCC2)=NN1 | 35.5 µM [rising, partial curve, poor fit] | –
38 | CCc1ccccc1NC(=O)C1CCCN1S(=O)(=O)c1ccc(-c2ccc(=O)[nH]n2)s1 (stereo not given) | 0.355 µM [rising, partial curve, poor fit] | –
39 | O=C(COc1cccc2cccnc12)Nc1cccc(S(=O)(=O)N2CCCC2)c1 | 6.51 µM [falling, single point] | –
40 | O=C(NCCOc1ccccc1Cl)c1ncn[nH]1 | 7.08 µM [rising, full curve] | –
41 | Cc1cc(NCCCN2CCOCC2)n2nc(C)c(-c3ccc(F)cc3)c2n1 | 20 µM [falling, single point] | –
42 | Cc1cc(C)c(C#N)c(Sc2ccccc2N)n1 | 12.6 µM [rising, single point] | –

Row | Structure (SMILES) | AC50 [1] | AC50 [2]
43 | CC(OC(=O)CCN1C(=O)C2CC=CCC2C1=O)C(=O)c1ccc(F)cc1 (stereo not given) | 29.1 µM [rising, single point] | –
44 | Cc1c(C(=O)NC(Cc2ccccc2)c2nc3ccccc3[nH]2)cccc1[N+](=O)[O-] (stereo not given) | 29.1 µM [falling, single point] | –
45 | CCOc1ccccc1OCCC(=O)Nc1ccc2c(c1)OCO2 | – | 5.17 µM [falling, partial curve, poor fit]
46 | O=c1oc2ccccc2cc1NCc1ccccc1O | 13 µM [falling, partial curve] | –
47 | O=C1NC(=S)N/C1=C/c1ccc2ccccc2c1 | 0.398 µM [rising, full curve] | –
48 | COc1cc(C(=O)NNC(=O)C2CC=CCC2C(=O)O)cc(OC)c1OC (stereo not given) | 5.17 µM [rising, full curve] | 11.6 µM [falling, partial curve]
49 | O=C(NCC1CCCO1)c1cc(-c2ccccc2)on1 (stereo not given) | 8.2 µM [falling, partial curve] | –
50 | CCOC(=O)N1CCC(NC(=O)CC(NS(=O)(=O)c2ccc(Cl)cc2)c2ccco2)CC1 (stereo not given) | 0.731 µM [falling, partial curve, poor fit] | –
51 | Cc1ccc(NC(=O)Cn2cc(C(=O)c3ccco3)c3ccccc32)c(C)c1 | 6.31 µM [rising, single point] | –
52 | O=C(O)c1ccc(C(=O)Nc2ccc(F)cc2)cc1 | 14.6 µM [falling, partial curve] | –
53 | O=C(Nc1cccc(Cl)c1)c1cc(S(=O)(=O)N2CCCc3ccccc32)ccc1F | 3.98 µM [falling, full curve, poor fit] | –
54 | COc1ccc(C2c3c(ncn(CCN4CCOCC4)c3=N)Oc3ccc4ccccc4c32)cc1 (stereo not given) | 1.64 µM [falling, partial curve, poor fit] | –
55 | O=C(CSc1ccccc1C(=O)O)c1ccc(Cl)cc1 | 3.16 µM [rising, partial curve, poor fit] | –
56 | COc1ccc(CCn2c(N)c(S(=O)(=O)c3cccs3)c3nc4ccccc4nc32)cc1OC | 11.2 µM [falling, partial curve] | –
57 | C=CCS(=O)(=O)N1CCCC(C(=O)c2cccc(Cl)c2)C1 (stereo not given) | 11.2 µM [rising, partial curve, poor fit] | –
58 | COC(=O)c1ccc(C23CC4(C2)[C@H](CN(Cc2ccc(-c5ccccc5)cc2)[C@@H]4c2ccccc2)C3c2ccc(Cl)nc2)cc1 (stereo not given in full) | 4.47 µM [rising, single point] | –
59 | O=C(O)Cn1c(=O)c2c3c(sc2n(Cc2ccc(F)cc2)c1=O)CCCC3 | 0.1 µM [rising, full curve, poor fit] | –
60 | CC(C)NS(=O)(=O)c1ccc(NC(=O)CCc2ccccc2)cc1 | 29.1 µM [rising, single point] | –
61 | COc1cc2c(cc1OC)C(c1ccccc1N)=NCC2 | 0.708 µM [falling, partial curve, poor fit] | –

Whole records as entered above. Values in the order: AC50 [1]	AC50 [2]
COc1ccc(CCn2c(N)c(S(=O)(=O)c3cccs3)c3nc4ccccc4nc32)cc1OC is listed as 11.2 µM [falling, partial curve]	–
O=c1oc2ccccc2cc1NCc1ccccc1O is listed as 13 µM [falling, partial curve]	–
